For 2 molecules, binding results are on record in patent US20070197774A1.

Amino acid sequences for entries named in this document (tags omitted).
UniProt Q64326: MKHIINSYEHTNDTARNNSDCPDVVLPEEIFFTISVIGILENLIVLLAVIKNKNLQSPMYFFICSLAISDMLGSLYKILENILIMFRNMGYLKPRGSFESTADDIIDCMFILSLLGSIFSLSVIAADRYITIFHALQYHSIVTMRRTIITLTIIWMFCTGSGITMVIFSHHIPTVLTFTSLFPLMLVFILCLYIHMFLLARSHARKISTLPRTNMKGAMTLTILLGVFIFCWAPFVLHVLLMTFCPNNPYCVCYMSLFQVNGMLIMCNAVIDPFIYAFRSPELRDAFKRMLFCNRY

No constants are given. Whether binding was seen depends on the method and setting. Some entries that bind do so weakly or less than the wild type.

This experiment concerns the target MC-2R adrenocorticotropic hormone receptor (melanocortin 2 receptor) on explanted mouse adrenal membrane (mouse) (UniProt Q64326). Description: competitive displacement of 125I-mACTH(1-24) from mouse adrenal membrane fraction at 10, 100 and 1000 nM. On the technique in general: In a radioligand displacement assay an active substance lowers the binding of a labelled ligand.

For SYSMEHFRWGKPVGKRAAWVKVYP [(KKRRP15-19KRAAW) mACTH(1-24)], the binding result is “binds”. The same measure for SYSMEHFRWGKPVGKKRRPVKVYP [unmodified mACTH(1-24)]: “binds”.
